# Results taken from the supplement of paper PMC8728848.
# This is one part of the list.
# B1: BIp1-His (Cryptococcus neoformans) (protein)
# chain: MFTKIFVALFAATAVLSAPVESAEKRITHTGRATFYSPSVGIGACGWQNTDEELVVALNAPQYALNADHNCGQSVRITNEQNGNQEIAKVVDLCPGCNDGDLDMSPALFGALNNNDFDQGVFPISWNFLPRDDTSSSN
# Legend:
# Experiment in all cases: glycan array binding signal (z-score within array); higher = stronger binding
# Conditions in all cases: glycan notation: IUPAC condensed, linker removed
# [1] = biological target: Fuc(a1-2)Gal
# Outline: (§1)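 Glycan array data were curated from 3228 arrays in the Consortium for Functional Glycomics database and kept only where the protein sequence was available. Glycan names were converted to IUPAC-condensed notation, and columns mapping to the same glycan were averaged. The binding signal is a within-array Z-score, averaged across arrays of the same protein sequence at different concentrations or buffers and across linkers. Negative Z-scores can be read as non-binding.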
# [2] = biological target: Fuc(a1-2)Gal(b1-3)GalNAc
# Outline: as §1
# [3] = biological target: Fuc(a1-2)Gal(b1-3)GalNAc(a1-3)[Fuc(a1-2)]Gal(b1-4)Glc
# Outline: as §1
# [4] = biological target: Fuc(a1-2)Gal(b1-3)GalNAc(a1-3)[Fuc(a1-2)]Gal(b1-4)GlcNAc
# Outline: as §1
# [5] = biological target: Fuc(a1-2)Gal(b1-3)GalNAc(b1-3)Gal
# Outline: as §1
# [6] = biological target: Fuc(a1-2)Gal(b1-3)GalNAc(b1-3)Gal(a1-4)Gal(b1-4)Glc
# Outline: as §1
# [7] = biological target: Fuc(a1-2)Gal(b1-3)GalNAc(b1-4)[Neu5Ac(a2-3)]Gal(b1-4)Glc
# Outline: as §1
# [8] = biological target: Fuc(a1-2)Gal(b1-3)GlcNAc
# Outline: as §1
# [9] = biological target: Fuc(a1-2)Gal(b1-3)GlcNAc(b1-2)Man(a1-3)[Fuc(a1-2)Gal(b1-3)GlcNAc(b1-2)Man(a1-6)]Man(b1-4)GlcNAc(b1-4)GlcNAc
# Outline: as §1
# [10] = biological target: Fuc(a1-2)Gal(b1-3)GlcNAc(b1-2)Man(a1-3)[Fuc(a1-2)Gal(b1-3)GlcNAc(b1-2)Man(a1-6)]Man(b1-4)GlcNAc(b1-4)[Fuc(a1-6)]GlcNAc
# Outline: as §1
# [11] = biological target: Fuc(a1-2)Gal(b1-3)GlcNAc(b1-3)Gal(b1-4)Glc
# Outline: as §1
# [12] = biological target: Fuc(a1-2)Gal(b1-3)GlcNAc(b1-3)GalNAc
# Outline: as §1
# [13] = biological target: Fuc(a1-2)Gal(b1-3)GlcNAc(b1-3)[Fuc(a1-2)Gal(b1-3)GlcNAc(b1-6)]GalNAc
# Outline: as §1
# [14] = biological target: Fuc(a1-2)Gal(b1-3)GlcNAc(b1-3)[Gal(b1-4)GlcNAc(b1-6)]Gal(b1-4)Glc
# Outline: as §1
# [15] = biological target: Fuc(a1-2)Gal(b1-3)GlcNAc(b1-3)[Neu5Ac(a2-6)Gal(b1-4)GlcNAc(b1-6)]Gal(b1-4)Glc
# Outline: as §1
# [16] = biological target: Fuc(a1-2)Gal(b1-3)GlcNAc6S
# Outline: as §1
# [17] = biological target: Fuc(a1-2)Gal(b1-3)[Fuc(a1-4)]GlcNAc
# Outline: as §1
# [18] = biological target: Fuc(a1-2)Gal(b1-3)[Fuc(a1-4)]GlcNAc(b1-2)Man(a1-3)[Fuc(a1-2)Gal(b1-3)[Fuc(a1-4)]GlcNAc(b1-2)Man(a1-3)]Man(b1-4)GlcNAc(b1-4)GlcNAc
# Outline: as §1
# [19] = biological target: Fuc(a1-2)Gal(b1-3)[Fuc(a1-4)]GlcNAc(b1-2)Man(a1-3)[Fuc(a1-2)Gal(b1-3)[Fuc(a1-4)]GlcNAc(b1-2)Man(a1-6)]Man(b1-4)GlcNAc(b1-4)[Fuc(a1-6)]GlcNAc(b1-4)[Fuc(a1-6)]GlcNAc
# Outline: as §1
# [20] = biological target: Fuc(a1-2)Gal(b1-3)[Fuc(a1-4)]GlcNAc(b1-3)[Fuc(a1-3)[Gal(b1-4)]GlcNAc(b1-6)]Gal(b1-4)Glc
# Outline: as §1
# [21] = biological target: Fuc(a1-2)Gal(b1-3)[Fuc(a1-4)]GlcNAc(b1-3)[Gal(b1-4)GlcNAc(b1-6)]Gal(b1-4)Glc
# Outline: as §1
# [22] = biological target: Fuc(a1-2)Gal(b1-4)Fuc(a1-3)]GlcNAc(b1-2)Man(a1-3)[Fuc(a1-2)Gal(b1-4)[Fuc(a1-3)]GlcNAc(b1-2)Man(a1-6)]Man(b1-4)GlcNAc(b1-4)GlcNAc
# Outline: as §1
# [23] = biological target: Fuc(a1-2)Gal(b1-4)Glc
# Outline: as §1
# [24] = biological target: Fuc(a1-2)Gal(b1-4)Glc6S
# Outline: as §1
# [25] = biological target: Fuc(a1-2)Gal(b1-4)GlcNAc
# Outline: as §1
# [26] = biological target: Fuc(a1-2)Gal(b1-4)GlcNAc(b1-2)Man
# Outline: as §1
# [27] = biological target: Fuc(a1-2)Gal(b1-4)GlcNAc(b1-2)Man(a1-3)[Fuc(a1-2)Gal(b1-4)GlcNAc(b1-2)Man(a1-6)]Man(b1-4)GlcNAc(b1-4)GlcNAc
# Outline: as §1
# [28] = biological target: Fuc(a1-2)Gal(b1-4)GlcNAc(b1-2)Man(a1-3)[Fuc(a1-2)Gal(b1-4)GlcNAc(b1-2)Man(a1-6)]Man(b1-4)GlcNAc(b1-4)[Fuc(a1-6)]GlcNAc
# Outline: as §1
# [29] = biological target: Fuc(a1-2)Gal(b1-4)GlcNAc(b1-2)[Fuc(a1-2)Gal(b1-4)GlcNAc(b1-4)]Man(a1-3)[Fuc(a1-2)Gal(b1-4)GlcNAc(b1-2)Man(a1-6)]Man(b1-4)GlcNAc(b1-4)GlcNAc
# Outline: as §1
# [30] = biological target: Fuc(a1-2)Gal(b1-4)GlcNAc(b1-3)Gal(b1-4)GlcNAc
# Outline: as §1
binder,measurement,setting,value
B1,glycan array binding signal (z-score),[1],0.588
same,glycan array binding signal (z-score),[2],-0.387
same,glycan array binding signal (z-score),[3],0.963
same,glycan array binding signal (z-score),[4],-1.35
same,glycan array binding signal (z-score),[5],0.007
same,glycan array binding signal (z-score),[6],0.19
same,glycan array binding signal (z-score),[7],0.213
same,glycan array binding signal (z-score),[8],-0.134
same,glycan array binding signal (z-score),[9],0.268
same,glycan array binding signal (z-score),[10],-0.097
same,glycan array binding signal (z-score),[11],-0.935
same,glycan array binding signal (z-score),[12],-0.078
same,glycan array binding signal (z-score),[13],-0.401
same,glycan array binding signal (z-score),[14],-0.39
same,glycan array binding signal (z-score),[15],-0.593
same,glycan array binding signal (z-score),[16],-0.724
same,glycan array binding signal (z-score),[17],-0.006
same,glycan array binding signal (z-score),[18],0.268
same,glycan array binding signal (z-score),[19],0.269
same,glycan array binding signal (z-score),[20],-0.86
same,glycan array binding signal (z-score),[21],0.718
same,glycan array binding signal (z-score),[22],1.55
same,glycan array binding signal (z-score),[23],-0.355
same,glycan array binding signal (z-score),[24],0.441
same,glycan array binding signal (z-score),[25],-0.913
same,glycan array binding signal (z-score),[26],-0.202
same,glycan array binding signal (z-score),[27],-0.761
same,glycan array binding signal (z-score),[28],-0.228
same,glycan array binding signal (z-score),[29],1.58
same,glycan array binding signal (z-score),[30],-0.893

# At a glance, some entries already given.
binder,measurement,setting,value
B1,glycan array binding signal (z-score),[15],-0.593
same,glycan array binding signal (z-score),[16],-0.724
